Results: article PMC4302594
No constants are given. Whether binding was seen depends on the method and setting. In cells and extracts the contact can be indirect. Binding can be weak; no strength is given.

Molecular target: GST-fused Chlamydia pneumoniae TW183 chlamydial outer protein N (GST-CpCopN) (Chlamydia pneumoniae TW183)
Experiment: pull-down; GST-fusion proteins on glutathione-agarose beads with HEp-2 cell lysate; eluted fractions blotted with anti-human aldolase A antibody; only the target purified

B1: fructose bisphosphate aldolase A (enzyme, UniProt P04075 1-364)
chain: MPYQYPALTPEQKKELSDIAHRIVAPGKGILAADESTGSIAKRLQSIGTENTEENRRFYRQLLLTADDRVNPCIGGVILFHETLYQKADDGRPFPQVIKSKGGVVGIKVDKGVVPLAGTNGETTTQGLDGLSERCAQYKKDGADFAKWRCVLKIGEHTPSALAIMENANVLARYASICQQNGIVPIVEPEILPDGDHDLKRCQYVTEKVLAAVYKALSDHHIYLEGTLLKPNMVTPGHACTQKFSHEEIAMATVTALRRTVPPAVTGITFLSGGQSEEEASINLNAINKCPLLKPWALTFSYGRALQASALKAWGGKKENLKAAQEEYVKRALANSLACQGKYTPSGQAGAAASESLFVSNHAY
Q: For B1, which binding is on record?
A: binds
